The record followed here is article PMC11561020.

This data set relates to GST-Hap2 core (PoHap2) + GST-Hap3 (PoHap3) + GST-Hap5 (PoHap5). The data set can be described thus: EMSA. The following applies: 13 pmol each protein in 20 ul, 20 ul: binding buffer of Papagiannopoulos et al. 1996 (composition and pH not given), 1 ug poly(dI-dC), 100 nmol DTT, 500 or 250 pmol random ds oligo, 2.5 pmol probe, recombinant protein, protein details: N-terminal GST (pGEX-6P-1),GST,GST, label: Cy5 (on selex_fm2). In general terms: Mobility shift assays separate free from complexed probe on a gel.

The exact form of at least one protein or probe is not confirmed. A negative result means that nothing was seen under these conditions.

“GTGATTGGCCGGCATCAGCGCCTGTAGCGTGTTCGGCAACTT (double strand) [probe 1 (vp2 CCAAT, TNS12)]”: the binding result (also 2 pmol each, two shifted bands, poly(dI-dC) and random ds oligo present) was “binds”.
Consider “GTGAAGCGCCGGCATCAGCGCCTGTAGCGTGTTCGGCAACTT (double strand) [probe 2 (mutated CCAAT, TNS13)]”, for which the binding result (no shift) was “no binding”.
